Laboratory results from article PMC3418296.
These are yes or no findings as the source states them, for the method shown. Some binding calls cover weakened binding; strength is not graded here.

Chains of the proteins cited; added tags and fusions are not shown. Residues count along the entry.
UniProt P08581, residues 25-932: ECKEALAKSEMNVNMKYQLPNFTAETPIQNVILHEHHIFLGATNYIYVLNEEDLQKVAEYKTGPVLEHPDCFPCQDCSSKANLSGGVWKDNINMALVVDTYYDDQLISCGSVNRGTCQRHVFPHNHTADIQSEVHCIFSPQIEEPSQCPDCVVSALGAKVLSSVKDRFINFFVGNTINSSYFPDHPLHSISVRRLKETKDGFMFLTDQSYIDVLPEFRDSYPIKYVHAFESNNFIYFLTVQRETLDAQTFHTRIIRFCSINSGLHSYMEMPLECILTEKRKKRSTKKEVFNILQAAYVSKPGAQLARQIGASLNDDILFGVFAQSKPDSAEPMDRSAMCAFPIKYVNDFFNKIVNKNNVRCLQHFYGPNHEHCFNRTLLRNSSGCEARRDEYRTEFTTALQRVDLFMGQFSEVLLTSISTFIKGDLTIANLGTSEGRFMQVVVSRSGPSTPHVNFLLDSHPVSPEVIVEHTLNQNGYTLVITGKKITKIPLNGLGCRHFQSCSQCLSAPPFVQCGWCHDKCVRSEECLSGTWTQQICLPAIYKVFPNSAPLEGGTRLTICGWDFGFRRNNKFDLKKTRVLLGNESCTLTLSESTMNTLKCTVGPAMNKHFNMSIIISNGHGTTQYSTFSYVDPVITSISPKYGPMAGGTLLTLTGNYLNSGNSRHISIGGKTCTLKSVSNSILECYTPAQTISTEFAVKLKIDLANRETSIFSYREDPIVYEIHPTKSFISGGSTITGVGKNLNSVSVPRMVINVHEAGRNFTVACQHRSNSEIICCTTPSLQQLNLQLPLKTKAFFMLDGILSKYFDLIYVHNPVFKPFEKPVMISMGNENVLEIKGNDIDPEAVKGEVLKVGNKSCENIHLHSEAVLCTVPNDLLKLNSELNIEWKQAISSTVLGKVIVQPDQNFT
UniProt P14210, residues 32-728: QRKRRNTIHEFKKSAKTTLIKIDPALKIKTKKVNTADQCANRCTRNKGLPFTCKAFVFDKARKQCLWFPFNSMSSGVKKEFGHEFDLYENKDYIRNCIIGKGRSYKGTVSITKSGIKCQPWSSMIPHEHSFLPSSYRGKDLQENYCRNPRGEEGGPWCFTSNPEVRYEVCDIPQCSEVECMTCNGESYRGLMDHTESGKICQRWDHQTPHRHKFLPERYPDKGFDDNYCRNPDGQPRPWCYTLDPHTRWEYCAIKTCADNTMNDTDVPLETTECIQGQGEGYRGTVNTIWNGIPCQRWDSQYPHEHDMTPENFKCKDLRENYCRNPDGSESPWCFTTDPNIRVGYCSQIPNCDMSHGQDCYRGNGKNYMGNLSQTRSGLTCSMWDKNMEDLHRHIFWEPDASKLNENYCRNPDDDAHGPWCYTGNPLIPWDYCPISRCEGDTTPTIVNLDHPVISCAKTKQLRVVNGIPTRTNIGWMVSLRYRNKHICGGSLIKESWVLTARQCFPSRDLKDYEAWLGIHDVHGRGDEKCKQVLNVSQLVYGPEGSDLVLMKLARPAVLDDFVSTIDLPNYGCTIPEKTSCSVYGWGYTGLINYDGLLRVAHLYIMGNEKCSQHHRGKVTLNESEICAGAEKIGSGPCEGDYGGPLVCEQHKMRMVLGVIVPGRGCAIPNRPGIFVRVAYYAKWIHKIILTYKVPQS

Target: Fc tagged recombinant human c-Met (human) (UniProt P08581)
Test: SPR; Biacore T-100, CM5 chip coated with 4000 RU protein A/G by amine coupling; Fc tagged c-Met loaded (350 RU) on flow cell 2, IgG-Fc (100 RU) on reference flow cell 1; HGF injected 60 s at 10 ul/min; HBS-P (10 mM HEPES pH 7.4, 150 mM NaCl, 0.05% P-20); reference-subtracted signal; both purified

- binding: binds
Substance: Hepatocyte Growth Factor (from UniProt P14210 32-728) (ligand)
